From paper PMC5733394
No constants are given. Whether binding was seen depends on the method and setting. Binding seen in cells or lysates may run through a third protein. Some binding calls cover weakened binding; strength is not graded here.

The chains behind the UniProt entries cited, without tags or fusion partners. Where a name states a change or a piece, a line headed by the entry shows the natural chain unless it says otherwise. A line that says so, or that is headed by a name, gives the form on record, which may keep a tag or linker. Residues count along the entry.
IRE1^LD-GST (O75460, residues 19-486): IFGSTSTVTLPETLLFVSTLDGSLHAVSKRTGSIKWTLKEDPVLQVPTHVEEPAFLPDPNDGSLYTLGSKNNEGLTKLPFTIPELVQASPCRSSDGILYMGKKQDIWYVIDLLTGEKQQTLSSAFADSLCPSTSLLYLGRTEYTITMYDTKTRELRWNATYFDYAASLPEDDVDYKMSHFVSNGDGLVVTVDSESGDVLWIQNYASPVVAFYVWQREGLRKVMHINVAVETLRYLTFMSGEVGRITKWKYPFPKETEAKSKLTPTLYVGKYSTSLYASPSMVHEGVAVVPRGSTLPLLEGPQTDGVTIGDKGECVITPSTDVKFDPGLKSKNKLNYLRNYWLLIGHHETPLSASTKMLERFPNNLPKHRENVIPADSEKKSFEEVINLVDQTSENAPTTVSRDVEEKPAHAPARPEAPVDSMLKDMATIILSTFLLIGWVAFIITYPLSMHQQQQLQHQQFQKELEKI
IRE1^(LD Q105C)-GST (O75460, form named): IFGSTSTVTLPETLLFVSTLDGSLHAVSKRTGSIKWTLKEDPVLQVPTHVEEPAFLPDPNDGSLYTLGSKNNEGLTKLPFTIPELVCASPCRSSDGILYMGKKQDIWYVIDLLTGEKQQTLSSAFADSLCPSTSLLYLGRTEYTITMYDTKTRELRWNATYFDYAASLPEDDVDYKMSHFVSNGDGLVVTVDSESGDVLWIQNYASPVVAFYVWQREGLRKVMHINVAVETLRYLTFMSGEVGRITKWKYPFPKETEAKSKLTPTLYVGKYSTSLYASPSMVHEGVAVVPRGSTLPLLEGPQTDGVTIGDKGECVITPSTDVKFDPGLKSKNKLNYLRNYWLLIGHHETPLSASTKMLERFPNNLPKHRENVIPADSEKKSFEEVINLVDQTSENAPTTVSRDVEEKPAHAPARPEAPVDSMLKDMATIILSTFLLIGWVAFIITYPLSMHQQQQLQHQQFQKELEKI
UniProt G3I8R9, residues 19-654: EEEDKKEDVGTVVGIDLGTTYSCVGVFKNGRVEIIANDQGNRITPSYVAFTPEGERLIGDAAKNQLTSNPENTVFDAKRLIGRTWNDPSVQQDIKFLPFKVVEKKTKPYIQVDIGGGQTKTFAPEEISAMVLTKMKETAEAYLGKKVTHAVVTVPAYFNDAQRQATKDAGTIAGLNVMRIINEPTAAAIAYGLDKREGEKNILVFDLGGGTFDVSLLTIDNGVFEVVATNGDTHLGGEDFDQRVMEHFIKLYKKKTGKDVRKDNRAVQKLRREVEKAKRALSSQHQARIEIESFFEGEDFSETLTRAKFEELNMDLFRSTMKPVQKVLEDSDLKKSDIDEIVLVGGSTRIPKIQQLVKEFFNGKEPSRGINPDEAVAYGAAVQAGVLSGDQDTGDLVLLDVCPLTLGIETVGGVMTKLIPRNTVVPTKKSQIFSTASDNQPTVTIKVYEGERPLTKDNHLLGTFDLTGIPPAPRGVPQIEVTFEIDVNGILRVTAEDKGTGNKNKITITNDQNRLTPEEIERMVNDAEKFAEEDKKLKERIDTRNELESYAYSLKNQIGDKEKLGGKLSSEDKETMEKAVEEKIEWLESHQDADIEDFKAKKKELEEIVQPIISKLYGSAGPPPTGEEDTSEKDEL

Experiments:
IRE1^LD-GST (human) = IRE1^LD-GST (human) (UniProt O75460); assay: pull-down; GST fusions recovered on glutathione Sepharose 4B from lysates of transfected ΔERdj4 CHO cells (co-transfected with ERdj4, ERdj4^QPD or ERdj6 where indicated); ATP-depleting lysis buffer; endogenous BiP by immunoblot; where indicated beads incubated 5 min with 3 mM ATP
[1] = biological target: IRE1^(LD Q105C)-GST (human) (UniProt O75460); assay: as above

## endogenous BiP (CHO cells) (from UniProt G3I8R9 19-654)
IRE1^LD-GST (human)
  binding: binds
[1]
  binding: binds
